{"source": "paper PMC12338722", "binders": {"B1": {"name": "MtrB truncation mutant MtrB_(1-285), bacterial two-hybrid fusion (domain or fragment, UniProt A0QTK3 1-285)", "chain": "MIFGSRRRIRGRWGGSGPLVRGLGTLGRALSLVWRRSLQLRVVTLTLGLSLAVILVLGFVLTSQITDRILEVKVKAATEEVERARNTVSGIVGGEESRSLESSLQLARNTLVDRKADVRADMAGAFDAVLVVPGDGPRAAAAAGPVAQIPEALRDFVKAGQVSYQYATVQTEGFSGPALIVGSPTTSSVPNLELYLIFPLNNEESTIALVRGTMATGGVVLLGLLAAIALVVARQIVQPVRSASRIAERFAEGHLTERMPVRGEDDMARLAVSFNDMAESLSRQI"}}, "target": "TapA, bacterial two-hybrid fusion", "assay": "two-hybrid", "note": "Results are given in words; binding and its absence hold for the method and conditions named. A result given as binding can be weak or reduced; the word gives no strength. Sequences can lack the tags named with a protein."}
{"binder": "B1", "values": [{"measurement": "binding", "value": "binds"}]}
